Measurements taken from paper doi:10.1101/2022.09.07.507063.
These are yes or no findings as the source states them, for the method shown. Binding seen in cells or lysates may run through a third protein. Some results given as binding are weak or reduced against the parent protein; the word gives no strength. Values belong to the molecule of their own block, whether it stands above or below them.

Chains of the proteins cited; added tags and fusions are not shown. Residues count along the entry.
UniProt P25445, residues 26-335: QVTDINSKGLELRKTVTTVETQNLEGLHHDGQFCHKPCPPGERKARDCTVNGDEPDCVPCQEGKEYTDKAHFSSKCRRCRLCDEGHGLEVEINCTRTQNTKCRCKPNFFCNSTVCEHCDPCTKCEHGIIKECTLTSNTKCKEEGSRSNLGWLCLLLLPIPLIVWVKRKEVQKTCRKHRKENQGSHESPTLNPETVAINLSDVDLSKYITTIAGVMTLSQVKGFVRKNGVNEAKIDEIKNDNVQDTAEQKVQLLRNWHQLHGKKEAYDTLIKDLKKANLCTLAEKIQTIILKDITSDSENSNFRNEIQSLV
UniProt O00220, residues 24-468: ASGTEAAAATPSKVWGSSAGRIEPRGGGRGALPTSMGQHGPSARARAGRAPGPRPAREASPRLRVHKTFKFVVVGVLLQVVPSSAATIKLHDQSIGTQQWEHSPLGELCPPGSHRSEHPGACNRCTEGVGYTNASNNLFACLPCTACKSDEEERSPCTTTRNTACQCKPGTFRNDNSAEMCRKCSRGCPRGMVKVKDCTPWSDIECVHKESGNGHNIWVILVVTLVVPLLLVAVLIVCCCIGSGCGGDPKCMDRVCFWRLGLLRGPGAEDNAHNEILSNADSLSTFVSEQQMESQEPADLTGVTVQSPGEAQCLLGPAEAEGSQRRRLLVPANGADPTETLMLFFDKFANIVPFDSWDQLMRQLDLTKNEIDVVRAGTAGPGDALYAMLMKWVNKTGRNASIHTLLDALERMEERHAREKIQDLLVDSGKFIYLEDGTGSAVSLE

Legend:
[1] = target: T1, membrane-associated RING-CH-type finger ubiquitin ligase MARCHF8 (human (endogenous in SCC152)) (UniProt Q5T0T0); assay: co-IP
T1 sequence: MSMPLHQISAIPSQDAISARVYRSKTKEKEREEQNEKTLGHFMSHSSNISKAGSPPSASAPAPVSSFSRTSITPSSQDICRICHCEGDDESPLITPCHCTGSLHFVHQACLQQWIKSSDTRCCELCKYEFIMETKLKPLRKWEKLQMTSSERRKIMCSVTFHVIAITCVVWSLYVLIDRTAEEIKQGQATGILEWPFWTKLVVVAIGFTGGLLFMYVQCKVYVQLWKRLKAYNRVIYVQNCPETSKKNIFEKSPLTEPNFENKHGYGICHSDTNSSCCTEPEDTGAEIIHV

[2] = target: FAS (human (endogenous in SCC152)) (UniProt P25445); assay: co-IP

binding [1]: binds
Molecule: tumor necrosis factor (TNF)-related apoptosis-inducing ligand receptor TRAIL-R1 (from UniProt O00220 24-468)

binding [1]: binds
Molecule: FAS (from UniProt P25445 26-335) (receptor)

binding [2]: binds
B1: membrane-associated RING-CH-type finger ubiquitin ligase MARCHF8 (enzyme, UniProt Q5T0T0 1-291)
chain: T1 sequence
